{
  "source": "patent US8357654B2",
  "about": "(Centre National de la Recherche Scientifique, priority 2004, dated 2013)",
  "experiment": "general procedure: peptide synthesis; 2-chlorotrityl chloride resin (1.3 or 1.6 mmol/g; Senn chemicals); BOP/DIEA (solution couplings); EDC.HCl/HOBt/DIEA (cyclisation)",
  "note": "Non-standard residues stand in square brackets, D forms with d. *: point of attachment. Biotin = O=C1N[C@H]2[C@H](CS[C@H]2CCCCC(=O)*)N1; Boc = CC(C)(C)OC(=O)*",
  "data": [
    {"substance": "H-[dA]K(Boc)[dK](Biotin)K(Boc)[dA]K(Boc)-OH (SEQ ID NO: 14)", "values": [
      {"measurement": "cyclisation yield", "setting": "cyclisation step", "result": 83, "unit": "%"},
      {"measurement": "step yield", "setting": "late stage modification step", "result": 95, "unit": "%"}
    ]}
  ]
}
